For 17 targets, log2 fold change results are on record in the supplement of paper PMC10849652.

The chains behind the UniProt entries cited, without tags or fusion partners. Where a name states a change or a piece, a line headed by the entry shows the natural chain unless it says otherwise.
UniProt O60347: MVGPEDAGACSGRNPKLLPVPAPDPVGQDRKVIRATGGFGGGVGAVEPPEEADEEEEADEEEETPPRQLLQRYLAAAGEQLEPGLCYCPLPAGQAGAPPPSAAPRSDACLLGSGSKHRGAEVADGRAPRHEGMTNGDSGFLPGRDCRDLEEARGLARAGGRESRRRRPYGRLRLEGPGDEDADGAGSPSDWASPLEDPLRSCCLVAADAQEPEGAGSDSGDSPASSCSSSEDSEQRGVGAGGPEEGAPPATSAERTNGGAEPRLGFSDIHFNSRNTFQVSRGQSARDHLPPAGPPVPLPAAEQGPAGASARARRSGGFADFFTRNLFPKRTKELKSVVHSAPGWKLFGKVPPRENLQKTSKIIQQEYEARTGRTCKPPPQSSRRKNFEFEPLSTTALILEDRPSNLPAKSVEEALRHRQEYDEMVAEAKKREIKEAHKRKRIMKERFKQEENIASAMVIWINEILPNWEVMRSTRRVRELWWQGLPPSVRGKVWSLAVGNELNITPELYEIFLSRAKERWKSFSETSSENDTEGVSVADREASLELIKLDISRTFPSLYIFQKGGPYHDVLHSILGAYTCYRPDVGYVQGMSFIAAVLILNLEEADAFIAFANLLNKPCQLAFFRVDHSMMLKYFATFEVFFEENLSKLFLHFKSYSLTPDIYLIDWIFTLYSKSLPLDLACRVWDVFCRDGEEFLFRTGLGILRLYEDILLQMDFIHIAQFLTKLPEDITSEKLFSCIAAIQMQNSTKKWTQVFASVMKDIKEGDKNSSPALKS
UniProt Q9H6P5: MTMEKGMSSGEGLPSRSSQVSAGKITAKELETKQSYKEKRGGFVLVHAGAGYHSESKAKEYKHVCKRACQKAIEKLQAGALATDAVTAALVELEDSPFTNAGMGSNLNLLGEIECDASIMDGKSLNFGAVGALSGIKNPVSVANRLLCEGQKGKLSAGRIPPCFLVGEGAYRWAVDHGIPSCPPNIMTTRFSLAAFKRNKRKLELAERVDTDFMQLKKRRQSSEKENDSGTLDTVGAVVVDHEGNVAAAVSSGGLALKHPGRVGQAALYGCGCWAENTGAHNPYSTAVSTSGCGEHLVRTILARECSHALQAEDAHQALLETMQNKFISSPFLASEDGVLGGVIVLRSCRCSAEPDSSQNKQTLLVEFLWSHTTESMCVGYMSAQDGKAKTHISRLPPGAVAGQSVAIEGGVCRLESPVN
UniProt O95359: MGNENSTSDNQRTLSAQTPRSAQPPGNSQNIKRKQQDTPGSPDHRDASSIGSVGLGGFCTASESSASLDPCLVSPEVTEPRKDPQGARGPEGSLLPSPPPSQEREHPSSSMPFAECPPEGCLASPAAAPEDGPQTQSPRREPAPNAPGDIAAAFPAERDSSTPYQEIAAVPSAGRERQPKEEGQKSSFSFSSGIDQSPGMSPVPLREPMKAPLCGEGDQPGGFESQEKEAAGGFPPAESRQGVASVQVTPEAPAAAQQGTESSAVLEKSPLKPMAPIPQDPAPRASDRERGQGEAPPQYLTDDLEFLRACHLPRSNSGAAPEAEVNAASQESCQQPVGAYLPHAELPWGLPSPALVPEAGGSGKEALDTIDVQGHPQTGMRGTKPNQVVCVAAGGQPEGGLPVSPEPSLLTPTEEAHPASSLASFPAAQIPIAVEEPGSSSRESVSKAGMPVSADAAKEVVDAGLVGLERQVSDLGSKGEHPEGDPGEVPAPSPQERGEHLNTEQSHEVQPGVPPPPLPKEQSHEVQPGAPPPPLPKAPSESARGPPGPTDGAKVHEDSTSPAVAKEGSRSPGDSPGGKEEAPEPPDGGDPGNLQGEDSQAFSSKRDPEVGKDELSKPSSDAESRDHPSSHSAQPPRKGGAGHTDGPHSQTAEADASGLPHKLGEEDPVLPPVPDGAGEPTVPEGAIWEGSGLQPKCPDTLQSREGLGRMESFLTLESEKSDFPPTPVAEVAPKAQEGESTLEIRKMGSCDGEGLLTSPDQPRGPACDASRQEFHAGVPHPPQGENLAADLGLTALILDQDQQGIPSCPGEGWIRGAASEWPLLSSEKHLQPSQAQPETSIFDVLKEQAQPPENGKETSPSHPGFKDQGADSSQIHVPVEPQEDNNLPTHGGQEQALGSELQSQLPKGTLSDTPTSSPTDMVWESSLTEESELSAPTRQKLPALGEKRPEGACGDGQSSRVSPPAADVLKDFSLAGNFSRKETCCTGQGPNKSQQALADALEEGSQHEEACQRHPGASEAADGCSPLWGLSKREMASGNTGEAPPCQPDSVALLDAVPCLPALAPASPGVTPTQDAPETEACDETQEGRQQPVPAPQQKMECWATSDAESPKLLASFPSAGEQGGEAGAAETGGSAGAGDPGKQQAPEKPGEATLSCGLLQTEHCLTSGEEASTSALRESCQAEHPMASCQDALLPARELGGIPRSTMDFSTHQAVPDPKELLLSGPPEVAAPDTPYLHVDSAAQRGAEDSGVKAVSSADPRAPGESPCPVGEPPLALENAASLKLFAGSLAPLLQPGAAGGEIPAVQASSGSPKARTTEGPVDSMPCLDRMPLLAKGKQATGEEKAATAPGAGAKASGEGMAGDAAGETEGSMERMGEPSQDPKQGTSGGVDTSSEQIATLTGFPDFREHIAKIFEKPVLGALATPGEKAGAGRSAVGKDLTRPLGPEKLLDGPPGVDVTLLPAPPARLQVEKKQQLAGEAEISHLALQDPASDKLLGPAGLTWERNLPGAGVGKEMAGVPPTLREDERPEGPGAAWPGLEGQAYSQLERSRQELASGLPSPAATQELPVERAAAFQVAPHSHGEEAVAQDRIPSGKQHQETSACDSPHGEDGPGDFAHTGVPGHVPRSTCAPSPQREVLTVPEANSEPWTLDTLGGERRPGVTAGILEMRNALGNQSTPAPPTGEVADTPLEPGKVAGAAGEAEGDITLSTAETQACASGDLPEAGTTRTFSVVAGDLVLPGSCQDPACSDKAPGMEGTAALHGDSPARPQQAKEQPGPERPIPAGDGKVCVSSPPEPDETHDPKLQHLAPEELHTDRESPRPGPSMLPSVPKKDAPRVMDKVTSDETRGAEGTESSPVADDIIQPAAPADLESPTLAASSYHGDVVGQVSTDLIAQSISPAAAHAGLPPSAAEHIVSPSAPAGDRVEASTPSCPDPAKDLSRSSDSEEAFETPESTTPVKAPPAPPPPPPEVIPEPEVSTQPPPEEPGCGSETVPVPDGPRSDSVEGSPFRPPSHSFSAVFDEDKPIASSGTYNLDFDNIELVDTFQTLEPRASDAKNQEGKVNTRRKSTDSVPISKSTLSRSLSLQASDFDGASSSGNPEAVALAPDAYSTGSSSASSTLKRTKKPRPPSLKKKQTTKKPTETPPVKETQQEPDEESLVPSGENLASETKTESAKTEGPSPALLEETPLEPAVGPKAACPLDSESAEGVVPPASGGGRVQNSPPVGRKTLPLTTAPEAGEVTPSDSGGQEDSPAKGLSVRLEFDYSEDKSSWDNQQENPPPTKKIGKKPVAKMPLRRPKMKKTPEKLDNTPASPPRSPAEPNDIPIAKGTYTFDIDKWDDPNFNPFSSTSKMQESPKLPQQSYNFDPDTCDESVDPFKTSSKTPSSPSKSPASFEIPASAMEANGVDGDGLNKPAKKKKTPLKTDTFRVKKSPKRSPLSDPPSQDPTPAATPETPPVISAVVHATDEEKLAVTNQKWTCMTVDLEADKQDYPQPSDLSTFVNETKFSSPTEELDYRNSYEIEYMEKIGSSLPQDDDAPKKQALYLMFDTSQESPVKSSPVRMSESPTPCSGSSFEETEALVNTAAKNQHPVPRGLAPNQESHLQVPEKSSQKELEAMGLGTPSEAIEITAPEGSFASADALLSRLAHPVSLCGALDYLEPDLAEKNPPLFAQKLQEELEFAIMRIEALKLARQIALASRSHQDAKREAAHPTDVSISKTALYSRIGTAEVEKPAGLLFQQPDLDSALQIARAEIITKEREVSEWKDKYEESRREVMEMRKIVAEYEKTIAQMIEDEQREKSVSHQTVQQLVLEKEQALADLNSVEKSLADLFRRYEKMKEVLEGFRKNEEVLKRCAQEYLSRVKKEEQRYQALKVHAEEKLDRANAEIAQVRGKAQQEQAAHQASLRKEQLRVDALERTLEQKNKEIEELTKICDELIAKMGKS
UniProt Q9Y6J9: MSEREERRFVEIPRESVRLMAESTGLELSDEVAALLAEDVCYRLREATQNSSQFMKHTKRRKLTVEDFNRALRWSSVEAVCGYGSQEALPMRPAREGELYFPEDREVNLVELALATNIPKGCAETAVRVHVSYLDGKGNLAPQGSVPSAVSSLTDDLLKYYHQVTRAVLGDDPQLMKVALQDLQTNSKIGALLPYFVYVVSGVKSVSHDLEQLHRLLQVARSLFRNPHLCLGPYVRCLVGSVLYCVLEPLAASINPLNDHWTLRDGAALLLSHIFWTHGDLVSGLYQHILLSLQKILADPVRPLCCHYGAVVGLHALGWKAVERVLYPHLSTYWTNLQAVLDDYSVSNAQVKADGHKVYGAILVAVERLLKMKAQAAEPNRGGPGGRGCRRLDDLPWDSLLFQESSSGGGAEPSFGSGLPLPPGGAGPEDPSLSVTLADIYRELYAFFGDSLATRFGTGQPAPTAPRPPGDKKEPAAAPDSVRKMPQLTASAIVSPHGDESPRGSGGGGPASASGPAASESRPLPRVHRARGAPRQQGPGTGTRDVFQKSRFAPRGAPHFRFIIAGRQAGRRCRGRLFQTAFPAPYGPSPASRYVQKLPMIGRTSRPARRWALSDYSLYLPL
UniProt Q15543, whole entry, looked up: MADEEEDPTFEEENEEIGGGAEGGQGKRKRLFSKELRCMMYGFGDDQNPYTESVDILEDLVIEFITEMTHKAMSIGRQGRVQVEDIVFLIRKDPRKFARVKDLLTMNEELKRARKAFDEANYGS
UniProt Q15544, whole entry, looked up: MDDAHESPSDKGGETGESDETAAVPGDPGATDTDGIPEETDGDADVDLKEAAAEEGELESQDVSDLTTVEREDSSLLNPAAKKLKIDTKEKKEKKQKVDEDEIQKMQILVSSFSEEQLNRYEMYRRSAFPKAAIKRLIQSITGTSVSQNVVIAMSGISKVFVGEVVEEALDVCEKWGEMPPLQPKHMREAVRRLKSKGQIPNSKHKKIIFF
UniProt P08247, whole entry, looked up: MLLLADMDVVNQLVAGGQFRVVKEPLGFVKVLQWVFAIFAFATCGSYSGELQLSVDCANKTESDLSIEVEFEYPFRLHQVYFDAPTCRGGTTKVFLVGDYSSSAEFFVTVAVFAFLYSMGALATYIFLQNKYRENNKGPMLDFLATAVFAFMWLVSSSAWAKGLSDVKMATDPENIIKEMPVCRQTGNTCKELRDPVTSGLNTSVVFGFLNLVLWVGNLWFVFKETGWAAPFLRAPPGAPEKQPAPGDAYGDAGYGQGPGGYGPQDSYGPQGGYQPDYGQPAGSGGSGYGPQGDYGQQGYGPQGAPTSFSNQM
UniProt Q13033: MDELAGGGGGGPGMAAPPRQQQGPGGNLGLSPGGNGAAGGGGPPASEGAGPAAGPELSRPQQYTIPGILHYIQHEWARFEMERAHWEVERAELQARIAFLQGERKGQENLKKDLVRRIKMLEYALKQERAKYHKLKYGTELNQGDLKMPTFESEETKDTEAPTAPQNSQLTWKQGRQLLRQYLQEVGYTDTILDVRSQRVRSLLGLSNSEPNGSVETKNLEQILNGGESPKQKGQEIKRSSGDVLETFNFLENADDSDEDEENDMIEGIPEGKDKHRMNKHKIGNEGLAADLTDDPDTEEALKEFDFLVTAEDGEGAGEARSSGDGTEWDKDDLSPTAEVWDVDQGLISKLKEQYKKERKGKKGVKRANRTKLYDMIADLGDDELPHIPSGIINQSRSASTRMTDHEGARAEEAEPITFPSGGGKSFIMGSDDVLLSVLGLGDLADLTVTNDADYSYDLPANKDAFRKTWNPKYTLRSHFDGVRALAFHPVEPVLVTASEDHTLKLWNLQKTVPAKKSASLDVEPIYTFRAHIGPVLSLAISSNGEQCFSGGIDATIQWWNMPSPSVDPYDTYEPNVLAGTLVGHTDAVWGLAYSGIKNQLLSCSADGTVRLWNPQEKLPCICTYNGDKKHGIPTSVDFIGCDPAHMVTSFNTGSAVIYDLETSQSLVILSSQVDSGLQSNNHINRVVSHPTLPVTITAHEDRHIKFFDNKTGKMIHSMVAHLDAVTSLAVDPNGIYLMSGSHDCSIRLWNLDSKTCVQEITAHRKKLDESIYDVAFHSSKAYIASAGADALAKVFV
UniProt Q9Y2Z0: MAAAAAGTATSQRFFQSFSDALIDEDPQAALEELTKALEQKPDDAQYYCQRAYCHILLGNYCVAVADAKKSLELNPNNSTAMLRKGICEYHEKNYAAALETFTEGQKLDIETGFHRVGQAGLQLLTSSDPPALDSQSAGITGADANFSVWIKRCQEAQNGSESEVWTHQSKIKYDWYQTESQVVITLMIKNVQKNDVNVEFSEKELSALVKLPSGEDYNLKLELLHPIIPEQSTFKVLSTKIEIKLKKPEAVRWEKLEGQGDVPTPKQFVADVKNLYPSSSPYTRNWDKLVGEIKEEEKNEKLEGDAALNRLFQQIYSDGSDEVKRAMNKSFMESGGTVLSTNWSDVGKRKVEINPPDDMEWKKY

The list shows a part of the results.

Compound in this experiment: FC(F)(F)c1ccc(/C=C/c2nc(COc3ccc(CCCCn4ccnn4)cc3)co2)cc1 [mubritinib]
The experiment in a line: log2 fold change, soluble protein after heating vs DMSO (PISA); higher = thermal stabilisation; K562 cells, 10 uM, 30 min; active = over 0.2 and 3.5 SD of the protein, either way, in both replicates (recomputed). The essentials: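 Values are thermal stability changes relative to control samples and are taken from duplicates. They are stated as log2 fold changes. Before quantification by TMTpro 16plex LC-MS/MS with equalised channel sums, K562 cells at 2×10^6 cells/mL were treated with 10 μM compound for 30 min, heated in aliquots for 3 min across 48°C-58°C, pooled, extracted in PBS with 0.5% NP-40 at 4°C, and centrifuged at 21,000xg for 90 min to give the soluble supernatant.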
For STK36 (UniProt Q9NRP7), the log2 fold change was inactive: 0.269.
For SUPT7L (UniProt O94864), the log2 fold change was inactive: -0.065.
Under TBC1D12 (UniProt O60347) stands inactive: -0.014; under TASP1 (UniProt Q9H6P5), inactive: 0.
Under TACC2 (UniProt O95359) stands inactive: -0.006; under STK35 (UniProt Q8TDR2), inactive: -0.223; under TAF6L (UniProt Q9Y6J9), inactive: 0.104.
On to SYTL4 (UniProt Q96C24), for which the log2 fold change was inactive: -0.172.
Regarding TAOK2 (UniProt Q9UL54), the log2 fold change was inactive: 0.01.
As for TAF13 (UniProt Q15543), the log2 fold change was inactive: 0.115.
To TAF11 (UniProt Q15544) belongs inactive: 0.071.
As to SYP (UniProt P08247), the log2 fold change is inactive: 0.127.
Under STRN3 isoform 2 (UniProt Q13033) stands inactive: -0.132.
Under SUGT1 isoform 2 (UniProt Q9Y2Z0) stands inactive: 0.073; under SUZ12 (UniProt Q15022), inactive: -0.093.
Under SVBP (UniProt Q8N300) stands inactive: 0.036; under STRIP2 (UniProt Q9ULQ0), inactive: -0.057.
